Reference: the supplement of paper PMC8007513
This is one part of the list. Single values are uncertain, as repeats are few or missing.

Each molecule was assayed on Saccharomyces cerevisiae BY4743 (assay: growth (OD600) relative to untreated control; higher = less growth inhibition). Conditions: compound concentration: 133 uM; 20 h.
Procedure: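 NMCCC compounds (133 uM, no IPBC) tested alone against Saccharomyces cerevisiae BY4743 in YPD, 96-well plates, starting OD600 ~0.1. Growth was read as OD600 at 20 h and expressed as % of the untreated control. Single pass.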
In the case of O=C(CCNC(=O)NCc1ccccc1)NC(c1ccccc1)c1cccs1 (stereo unspecified), the growth is reported as 94.5%. In the case of C1CCC(CC1)N\C2=N\N=C(/CS2)C3=CC=C[NH]3, the growth is reported as 83.6%. In the case of COCCN1\N=C(/C=C\C1=O)C(=O)N(CC2=C(F)C=CC=C2Cl)C3CC3, the growth is reported as 95.4%. Work on COc1ncccc1C(=O)Nc1ccc(-n2cncn2)nc1 yielded a growth of 90.8%. In the case of CC(C)(C)NC(=O)CN1CCCN(C(=O)CCc2ccc(S(=O)(=O)N3CCOCC3)cc2)CC1, the growth is reported as 112%. In the case of Cc1nc(C2(NC(=O)C(C)Oc3ccc(C#N)cc3)CCCCC2)no1 (stereo unspecified), the growth is reported as 107%. CC1=CC=CC=C1CCNC(=O)CN2\N=C(/OC2=O)C3=CC=CC=C3 showed a growth of 103%. Work on CCOc1cc(C(=O)N(C)Cc2nc3ccccc3s2)cc(OCC)c1OCC yielded a growth of 108%. CCOC(=O)C/1=C(\C)OC(=O)/C(=C1)NC(=O)C2=CC=CC=C2OC was tested, and the growth was 87.6%. NC(=O)c1ccc(S(=O)(=O)N2CCN(CCC(=O)N3CCOCC3)CC2)o1 showed a growth of 86.9%. In the case of CN(C(=O)Cn1c(=O)[nH]c2ccccc2c1=O)C1CCS(=O)(=O)C1 (stereo unspecified), the growth is reported as 99.9%. For CCOC(=O)CNC(=O)C1CCCc2c1[nH]c1ccc(Cl)cc21 (stereo unspecified), the growth was 105%. CCN(CC)S(=O)(=O)c1ccc(Cl)c(NC(=O)COc2ncnc3sccc23)c1 was tested, and the growth was 102%. O=C1O\C(=N/N1CCC#N)C2=CC=CS2 gave a growth of 100%. Molecule COC(=O)c1cc(OCC(=O)c2ccc[nH]2)cc(C(=O)OC)c1 has a growth of 100%. CCN(CC)[S](=O)(=O)C1=CC=C(C=C1)C(=O)N\C2=C(/C(C)C)N(C)N(C2=O)C3=CC=CC=C3 gave a growth of 107%.
